The exact form of at least one protein or probe is not confirmed. A weaker result is weaker than the reference pair of the same experiment. At least one verdict was read from the data and is not stated in words by the source.
Tests used:
Experiment in all cases: magnetic graphene FET sandwich sensor
Conditions in all cases: anti-CTNI antibody magnetic beads; 5'-NH2; PBS pH 7.4 washes; binding buffer not stated; room temperature 2 h (solution pull-down); 30 min bead reaction on sensor; commercial protein; label: 3'-6-FAM; single-stranded DNA
CK-MB = system: CK-MB
[1] = molecular target: bovine serum albumin (BSA) (bovine) (UniProt P02769)
[2] = molecular target: cardiac troponin T (CTNT) (UniProt P45379)
[3] = molecular target: human serum albumin (HSA) (human) (UniProt P02768)

Measured: binding result

CGTGCAGTACGCCAACCTTTCTCATGCGCTGCCCCTCTTA [CTNI aptamer]
binds more weakly: CK-MB | [1] | [2] | [3]

Reference: PMC10465447
